Laboratory results: PMC9932153

The chains behind the UniProt entries cited, without tags or fusion partners. Residues count along the entry.
UniProt Q9ULH1: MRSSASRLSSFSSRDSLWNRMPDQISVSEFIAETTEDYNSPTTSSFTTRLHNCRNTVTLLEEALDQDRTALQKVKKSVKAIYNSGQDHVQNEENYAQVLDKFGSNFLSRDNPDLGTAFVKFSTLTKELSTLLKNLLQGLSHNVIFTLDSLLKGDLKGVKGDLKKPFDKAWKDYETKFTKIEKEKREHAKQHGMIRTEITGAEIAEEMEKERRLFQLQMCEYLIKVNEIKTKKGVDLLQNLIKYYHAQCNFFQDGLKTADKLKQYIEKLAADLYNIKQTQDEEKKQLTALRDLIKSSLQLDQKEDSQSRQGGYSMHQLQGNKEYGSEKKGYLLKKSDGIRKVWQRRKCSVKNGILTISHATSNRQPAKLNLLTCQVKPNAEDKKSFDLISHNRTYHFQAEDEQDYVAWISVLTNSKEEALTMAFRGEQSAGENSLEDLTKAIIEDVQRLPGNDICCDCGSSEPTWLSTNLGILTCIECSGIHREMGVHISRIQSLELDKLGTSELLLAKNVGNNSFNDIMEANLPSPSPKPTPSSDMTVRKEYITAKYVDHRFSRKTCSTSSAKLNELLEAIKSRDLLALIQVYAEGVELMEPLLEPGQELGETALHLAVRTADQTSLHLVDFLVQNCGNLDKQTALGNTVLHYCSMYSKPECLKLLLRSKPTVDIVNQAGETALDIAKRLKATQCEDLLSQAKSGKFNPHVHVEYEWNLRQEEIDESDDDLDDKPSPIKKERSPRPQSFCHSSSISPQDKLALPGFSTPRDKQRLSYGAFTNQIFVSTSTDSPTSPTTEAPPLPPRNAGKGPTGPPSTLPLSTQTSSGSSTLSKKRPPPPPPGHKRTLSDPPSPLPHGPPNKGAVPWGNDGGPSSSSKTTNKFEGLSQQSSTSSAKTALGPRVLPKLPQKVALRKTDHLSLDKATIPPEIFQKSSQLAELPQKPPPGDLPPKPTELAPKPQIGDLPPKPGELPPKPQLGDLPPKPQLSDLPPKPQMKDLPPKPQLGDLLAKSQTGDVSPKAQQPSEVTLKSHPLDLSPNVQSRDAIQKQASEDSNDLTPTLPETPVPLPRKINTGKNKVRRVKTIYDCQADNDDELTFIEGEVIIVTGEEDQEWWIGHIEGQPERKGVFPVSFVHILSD
UniProt P08174, residues 35-353: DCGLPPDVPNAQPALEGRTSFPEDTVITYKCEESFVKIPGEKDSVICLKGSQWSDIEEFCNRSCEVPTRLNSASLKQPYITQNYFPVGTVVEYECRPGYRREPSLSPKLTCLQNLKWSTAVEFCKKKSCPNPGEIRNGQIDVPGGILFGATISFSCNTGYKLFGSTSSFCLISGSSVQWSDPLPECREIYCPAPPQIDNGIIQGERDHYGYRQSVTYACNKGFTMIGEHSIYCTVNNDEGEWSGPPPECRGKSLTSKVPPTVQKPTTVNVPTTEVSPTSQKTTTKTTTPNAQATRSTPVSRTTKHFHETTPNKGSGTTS
UniProt P21333: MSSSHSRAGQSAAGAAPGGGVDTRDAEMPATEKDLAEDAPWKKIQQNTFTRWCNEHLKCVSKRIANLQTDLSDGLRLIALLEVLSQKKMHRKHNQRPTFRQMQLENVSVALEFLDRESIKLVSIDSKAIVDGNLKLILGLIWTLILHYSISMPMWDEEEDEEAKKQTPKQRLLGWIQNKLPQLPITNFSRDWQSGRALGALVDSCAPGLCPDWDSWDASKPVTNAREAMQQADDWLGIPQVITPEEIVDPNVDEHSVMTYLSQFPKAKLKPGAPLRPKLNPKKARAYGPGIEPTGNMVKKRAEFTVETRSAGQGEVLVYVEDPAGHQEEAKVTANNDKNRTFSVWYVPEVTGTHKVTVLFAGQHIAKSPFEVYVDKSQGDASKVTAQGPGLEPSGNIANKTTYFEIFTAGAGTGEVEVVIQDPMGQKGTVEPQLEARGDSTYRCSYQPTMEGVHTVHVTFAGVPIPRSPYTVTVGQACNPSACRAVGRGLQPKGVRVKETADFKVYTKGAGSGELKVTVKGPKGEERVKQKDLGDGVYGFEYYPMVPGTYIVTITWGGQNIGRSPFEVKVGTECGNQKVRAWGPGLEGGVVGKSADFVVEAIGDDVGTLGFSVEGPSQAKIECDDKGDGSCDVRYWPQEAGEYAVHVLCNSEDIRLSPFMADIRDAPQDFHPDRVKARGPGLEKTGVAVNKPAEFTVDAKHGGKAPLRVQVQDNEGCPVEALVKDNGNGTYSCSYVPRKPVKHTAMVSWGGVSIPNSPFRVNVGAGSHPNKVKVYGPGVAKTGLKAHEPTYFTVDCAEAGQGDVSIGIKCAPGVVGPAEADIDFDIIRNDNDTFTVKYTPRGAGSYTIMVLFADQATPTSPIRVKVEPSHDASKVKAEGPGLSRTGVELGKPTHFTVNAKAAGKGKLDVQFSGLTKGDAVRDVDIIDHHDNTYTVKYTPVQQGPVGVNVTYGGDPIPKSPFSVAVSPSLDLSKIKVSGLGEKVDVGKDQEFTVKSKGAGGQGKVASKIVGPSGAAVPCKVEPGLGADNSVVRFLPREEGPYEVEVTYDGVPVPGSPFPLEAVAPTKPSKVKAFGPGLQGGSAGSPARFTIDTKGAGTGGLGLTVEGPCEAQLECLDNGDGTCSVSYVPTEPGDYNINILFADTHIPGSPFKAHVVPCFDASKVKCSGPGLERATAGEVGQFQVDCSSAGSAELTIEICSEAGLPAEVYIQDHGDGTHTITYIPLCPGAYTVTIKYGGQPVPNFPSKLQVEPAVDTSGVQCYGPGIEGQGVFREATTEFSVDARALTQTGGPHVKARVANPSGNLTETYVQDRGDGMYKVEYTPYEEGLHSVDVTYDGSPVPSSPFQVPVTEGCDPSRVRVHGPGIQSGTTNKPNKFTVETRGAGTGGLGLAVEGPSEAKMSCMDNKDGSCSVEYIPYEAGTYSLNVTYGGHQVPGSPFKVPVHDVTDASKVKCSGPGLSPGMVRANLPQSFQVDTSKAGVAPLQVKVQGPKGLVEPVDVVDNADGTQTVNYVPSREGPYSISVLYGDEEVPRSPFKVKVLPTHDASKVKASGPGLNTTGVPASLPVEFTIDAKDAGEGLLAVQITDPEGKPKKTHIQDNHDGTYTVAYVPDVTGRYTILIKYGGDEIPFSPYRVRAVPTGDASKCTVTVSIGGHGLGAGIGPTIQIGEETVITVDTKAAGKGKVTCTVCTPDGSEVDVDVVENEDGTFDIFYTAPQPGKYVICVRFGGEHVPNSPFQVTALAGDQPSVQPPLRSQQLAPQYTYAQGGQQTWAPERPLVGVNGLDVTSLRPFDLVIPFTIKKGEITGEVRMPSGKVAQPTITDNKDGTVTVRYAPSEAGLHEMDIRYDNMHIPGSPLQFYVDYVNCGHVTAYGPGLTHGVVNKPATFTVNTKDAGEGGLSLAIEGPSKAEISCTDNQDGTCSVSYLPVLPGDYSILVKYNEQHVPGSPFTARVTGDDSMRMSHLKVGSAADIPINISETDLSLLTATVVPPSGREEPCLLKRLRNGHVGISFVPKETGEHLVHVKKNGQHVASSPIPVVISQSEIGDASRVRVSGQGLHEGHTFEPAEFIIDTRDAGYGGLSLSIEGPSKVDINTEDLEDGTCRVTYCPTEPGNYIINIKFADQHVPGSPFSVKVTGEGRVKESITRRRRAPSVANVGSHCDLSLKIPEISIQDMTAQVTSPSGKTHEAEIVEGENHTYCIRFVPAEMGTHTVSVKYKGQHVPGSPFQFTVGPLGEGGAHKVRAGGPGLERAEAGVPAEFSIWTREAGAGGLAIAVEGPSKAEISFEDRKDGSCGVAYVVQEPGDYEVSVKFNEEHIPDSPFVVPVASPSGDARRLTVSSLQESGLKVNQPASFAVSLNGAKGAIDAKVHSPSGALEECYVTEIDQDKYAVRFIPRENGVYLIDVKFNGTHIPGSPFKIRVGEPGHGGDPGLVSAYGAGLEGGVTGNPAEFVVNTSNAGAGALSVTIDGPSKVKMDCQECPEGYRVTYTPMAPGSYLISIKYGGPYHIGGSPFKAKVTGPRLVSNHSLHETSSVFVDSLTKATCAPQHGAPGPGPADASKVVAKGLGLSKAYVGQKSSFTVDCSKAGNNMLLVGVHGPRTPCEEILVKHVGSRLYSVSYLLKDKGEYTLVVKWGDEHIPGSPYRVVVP
UniProt P46940: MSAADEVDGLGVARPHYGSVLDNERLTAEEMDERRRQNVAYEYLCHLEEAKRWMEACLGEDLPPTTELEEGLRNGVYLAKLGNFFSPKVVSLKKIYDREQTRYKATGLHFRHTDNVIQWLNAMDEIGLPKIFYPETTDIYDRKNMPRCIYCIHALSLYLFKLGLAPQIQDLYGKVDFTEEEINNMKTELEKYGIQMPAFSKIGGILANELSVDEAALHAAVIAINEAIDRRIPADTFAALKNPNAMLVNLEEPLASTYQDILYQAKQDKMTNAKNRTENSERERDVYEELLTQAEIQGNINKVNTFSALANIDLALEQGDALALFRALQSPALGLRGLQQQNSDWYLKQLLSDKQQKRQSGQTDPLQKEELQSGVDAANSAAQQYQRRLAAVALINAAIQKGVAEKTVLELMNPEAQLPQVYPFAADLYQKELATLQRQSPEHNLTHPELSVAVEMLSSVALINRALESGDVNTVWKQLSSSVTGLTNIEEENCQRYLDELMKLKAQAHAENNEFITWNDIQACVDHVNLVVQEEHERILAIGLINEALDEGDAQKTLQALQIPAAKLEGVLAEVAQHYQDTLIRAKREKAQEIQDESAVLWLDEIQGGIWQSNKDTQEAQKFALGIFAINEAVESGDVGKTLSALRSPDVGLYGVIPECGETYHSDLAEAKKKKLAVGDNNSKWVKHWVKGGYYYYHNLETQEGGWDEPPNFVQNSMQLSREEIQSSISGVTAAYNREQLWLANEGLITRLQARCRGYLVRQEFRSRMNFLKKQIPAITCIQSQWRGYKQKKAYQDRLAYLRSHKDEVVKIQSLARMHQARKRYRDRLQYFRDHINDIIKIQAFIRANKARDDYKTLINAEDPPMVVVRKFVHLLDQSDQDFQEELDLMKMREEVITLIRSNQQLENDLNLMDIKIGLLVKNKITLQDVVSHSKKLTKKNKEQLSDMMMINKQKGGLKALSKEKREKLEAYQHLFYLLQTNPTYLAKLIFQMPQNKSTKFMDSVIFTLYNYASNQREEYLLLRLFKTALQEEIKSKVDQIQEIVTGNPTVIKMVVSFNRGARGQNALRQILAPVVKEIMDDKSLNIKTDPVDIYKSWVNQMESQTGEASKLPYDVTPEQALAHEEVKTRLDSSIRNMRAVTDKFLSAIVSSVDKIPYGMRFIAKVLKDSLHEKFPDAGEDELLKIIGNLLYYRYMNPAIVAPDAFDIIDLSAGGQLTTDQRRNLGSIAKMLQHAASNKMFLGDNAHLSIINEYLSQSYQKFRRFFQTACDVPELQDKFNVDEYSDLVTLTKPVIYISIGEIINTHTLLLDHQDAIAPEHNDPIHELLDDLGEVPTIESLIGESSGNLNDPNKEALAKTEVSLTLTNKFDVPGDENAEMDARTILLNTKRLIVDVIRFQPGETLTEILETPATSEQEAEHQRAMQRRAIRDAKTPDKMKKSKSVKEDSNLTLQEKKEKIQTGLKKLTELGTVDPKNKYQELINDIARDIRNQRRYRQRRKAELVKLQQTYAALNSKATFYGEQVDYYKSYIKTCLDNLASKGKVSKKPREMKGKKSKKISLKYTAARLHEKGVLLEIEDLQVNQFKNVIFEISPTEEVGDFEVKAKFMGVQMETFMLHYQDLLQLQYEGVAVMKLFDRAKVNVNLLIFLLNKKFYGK

B1: RALA (protein, UniProt P11233 1-206)
chain: MAANKPKGQNSLALHKVIMVGSGGVGKSALTLQFMYDEFVEDYEPTKADSYRKKVVLDGEEVQIDILDTAGQEDYAAIRDNYFRSGEGFLCVFSITEMESFAATADFREQILRVKEDENVPFLLVGNKSDLEDKRQVSVEEAKNRAEQWNVNYVETSAKTRANVDKVFFDLMREIRARKMEDSKEKNGKKKRKSLAKRIRERCCIL

Biological target: ASAP1 (Arf GTP-activating protein), endogenous (human (endogenous in SGC-7901)) (UniProt Q9ULH1)
Test: affinity purification with mass spectrometry; immunoprecipitation with an antibody against ASAP1 from GC cells, label-free mass spectrometric analysis

Row | Molecule | binding
1 | CD55 (from UniProt P08174 35-353) | binds
2 | FLNA (from UniProt P21333 1-2647) | binds
3 | IQGAP1 (Ras GTPase-activating-like protein), endogenous (from UniProt P46940 1-1657) | binds
4 | PLEC (from UniProt Q15149 1-4684) | binds
5 | B1 | binds

Results are given in words; binding and its absence hold for the method and conditions named. Binding seen in cells or lysates may run through a third protein. These calls come from enrichment with a bait or labelling near it, and not all partners need be listed.
